# From the supplement of paper PMC8728848
# The list shows a part of the results.
# How the values were obtained:
# Experiment in all cases: glycan array binding signal (z-score within array); higher = stronger binding
# Conditions in all cases: glycan notation: IUPAC condensed, linker removed
# [1] = biological target: Glc(b1-6)Glc
# In short: (§1)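 Glycan array data were curated from 3228 arrays in the Consortium for Functional Glycomics database and kept only where the protein sequence was available. Glycan names were converted to IUPAC-condensed notation, and columns mapping to the same glycan were averaged. The binding signal is a within-array Z-score, averaged across arrays of the same protein sequence at different concentrations or buffers and across linkers. Negative Z-scores can be read as non-binding.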
# [2] = biological target: GlcA(b1-3)Gal
# In short: as §1
# [3] = biological target: GlcA(b1-3)GlcNAc
# In short: as §1
# [4] = biological target: GlcA(b1-6)Gal
# In short: as §1
# [5] = biological target: GlcA3S(b1-3)Gal(b1-4)GlcNAc(b1-2)Man
# In short: as §1
# [6] = biological target: GlcA3S(b1-3)Gal(b1-4)GlcNAc(b1-3)Gal(b1-4)Glc
# In short: as §1
# [7] = biological target: GlcNAc(a1-3)Gal(b1-4)GlcNAc
# In short: as §1
# [8] = biological target: GlcNAc(a1-4)Gal(b1-3)GlcNAc
# In short: as §1
# [9] = biological target: GlcNAc(a1-4)Gal(b1-4)GalNAc
# In short: as §1
# [10] = biological target: GlcNAc(a1-4)Gal(b1-4)GlcNAc
# In short: as §1
# [11] = biological target: GlcNAc(a1-4)Gal(b1-4)GlcNAc(b1-3)Gal(b1-4)Glc
# In short: as §1
# [12] = biological target: GlcNAc(a1-4)Gal(b1-4)GlcNAc(b1-3)Gal(b1-4)GlcNAc
# In short: as §1
# [13] = biological target: GlcNAc(a1-4)Gal(b1-4)GlcNAc(b1-3)Gal(b1-4)GlcNAc(b1-3)Gal(b1-4)GlcNAc
# In short: as §1
# [14] = biological target: GlcNAc(a1-4)Gal(b1-4)GlcNAc(b1-3)Gal(b1-4)[Fuc(a1-3)]GlcNAc(b1-3)Gal(b1-4)[Fuc(a1-3)]GlcNAc
# In short: as §1
# [15] = biological target: GlcNAc(a1-6)Gal(b1-4)GlcNAc
# In short: as §1
# [16] = biological target: GlcNAc(b1-2)Gal(b1-3)GalNAc
# In short: as §1
# [17] = biological target: GlcNAc(b1-2)Man(a1-3)[GlcNAc(b1-2)Man(a1-6)]Man(b1-4)GlcNAc(b1-4)GlcNAc
# In short: as §1
# [18] = biological target: GlcNAc(b1-2)Man(a1-3)[GlcNAc(b1-2)Man(a1-6)]Man(b1-4)GlcNAc(b1-4)[Fuc(a1-6)]GlcNAc
# In short: as §1
# [19] = biological target: GlcNAc(b1-2)Man(a1-3)[GlcNAc(b1-4)][GlcNAc(b1-2)Man(a1-6)]Man(b1-4)GlcNAc(b1-4)GlcNAc
# In short: as §1
# [20] = biological target: GlcNAc(b1-2)Man(a1-3)[GlcNAc(b1-4)][GlcNAc(b1-2)Man(a1-6)]Man(b1-4)GlcNAc(b1-4)[Fuc(a1-6)]GlcNAc
# In short: as §1
# [21] = biological target: GlcNAc(b1-2)[GlcNAc(b1-4)]Man(a1-3)[GlcNAc(b1-2)Man(a1-6)]Man(b1-4)GlcNAc(b1-4)GlcNAc
# In short: as §1
# [22] = biological target: GlcNAc(b1-2)[GlcNAc(b1-4)]Man(a1-3)[GlcNAc(b1-4)][GlcNAc(b1-2)Man(a1-6)]Man(b1-4)GlcNAc(b1-4)GlcNAc
# In short: as §1
# [23] = biological target: GlcNAc(b1-2)[GlcNAc(b1-4)]Man(a1-3)[GlcNAc(b1-4)][GlcNAc(b1-2)[GlcNAc(b1-6)]Man(a1-6)]Man(b1-4)GlcNAc(b1-4)GlcNAc
# In short: as §1
# [24] = biological target: GlcNAc(b1-2)[GlcNAc(b1-4)]Man(a1-3)[GlcNAc(b1-4)][GlcNAc(b1-2)[GlcNAc(b1-6)]Man(a1-6)]Man(b1-4)GlcNAc(b1-4)[Fuc(a1-6)]GlcNAc
# In short: as §1
# [25] = biological target: GlcNAc(b1-2)[GlcNAc(b1-6)]Man(a1-6)[GlcNAc(b1-2)Man(a1-3)]Man(b1-4)GlcNAc(b1-4)GlcNAc
# In short: as §1
# [26] = biological target: GlcNAc(b1-2)[GlcNAc(b1-6)]Man(a1-6)[GlcNAc(b1-2)Man(a1-3)]Man(b1-4)GlcNAc(b1-4)[Fuc(a1-6)]GlcNAc
# In short: as §1
# [27] = biological target: GlcNAc(b1-2)[GlcNAc(b1-6)]Man(a1-6)[GlcNAc(b1-4)][GlcNAc(b1-2)Man(a1-3)]Man(b1-4)GlcNAc(b1-4)GlcNAc
# In short: as §1
# [28] = biological target: GlcNAc(b1-3)Fuc
# In short: as §1
# [29] = biological target: GlcNAc(b1-3)Gal
# In short: as §1
# [30] = biological target: GlcNAc(b1-3)Gal(b1-3)GalNAc
# In short: as §1
# [31] = biological target: GlcNAc(b1-3)Gal(b1-4)Glc
# In short: as §1
# [32] = biological target: GlcNAc(b1-3)Gal(b1-4)GlcNAc
# In short: as §1
# [33] = biological target: GlcNAc(b1-3)Gal(b1-4)GlcNAc(b1-2)Man(a1-3)[GlcNAc(b1-3)Gal(b1-4)GlcNAc(b1-2)Man(a1-6)]Man(b1-4)GlcNAc(b1-4)GlcNAc
# In short: as §1
# [34] = biological target: GlcNAc(b1-3)Gal(b1-4)GlcNAc(b1-2)Man(a1-3)[GlcNAc(b1-3)Gal(b1-4)GlcNAc(b1-2)Man(a1-6)]Man(b1-4)GlcNAc(b1-4)[Fuc(a1-6)]GlcNAc
# In short: as §1
# [35] = biological target: GlcNAc(b1-3)Gal(b1-4)GlcNAc(b1-2)[GlcNAc(b1-3)Gal(b1-4)GlcNAc(b1-6)]Man(a1-6)[GlcNAc(b1-3)Gal(b1-4)GlcNAc(b1-2)Man(a1-3)]Man(b1-4)GlcNAc(b1-4)GlcNAc
# In short: as §1
# [36] = biological target: GlcNAc(b1-3)Gal(b1-4)GlcNAc(b1-3)Gal(b1-4)GlcNAc
# In short: as §1
# [37] = biological target: GlcNAc(b1-3)Gal(b1-4)GlcNAc(b1-3)Gal(b1-4)GlcNAc(b1-2)Man(a1-3)[GlcNAc(b1-3)Gal(b1-4)GlcNAc(b1-3)Gal(b1-4)GlcNAc(b1-2)Man(a1-6)]Man(b1-4)GlcNAc(b1-4)GlcNAc
# In short: as §1
binder,measurement,setting,value
"Clec18Av1 (Homo sapiens), A5D8T8 (protein) MLHPETSPGRGHLLAVLLALLGTAWAEVWPPQLQEQAPMAGALNRKESFLLLSLHNRLRSWVQPPAADMRRLDWSDSLAQLAQARAALCGTPTPSLASGLWRTLQVGWNMQLLPAGLVSFVEVVSLWFAEGQRYSHAAGECARNATCTHYTQLVWATSSQLGCGRHLCSAGQAAIEAFVCAYSPRGNWEVNGKTIVPYKKGAWCSLCTASVSGCFKAWDHAGGLCEVPRNPCRMSCQNHGRLNISTCHCHCPPGYTGRYCQVRCSLQCVHGRFREEECSCVCDIGYGGAQCATKVHFPFHTCDLRIDGDCFMVSSEADTYYRARMKCQRKGGVLAQIKSQKVQDILAFYLGRLETTNEVIDSDFETRNFWIGLTYKTAKDSFRWATGEHQAFTSFAFGQPDNHGFGNCVELQASAAFNWNDQRCKTRNRYICQFAQEHISRWGPGS",glycan array binding signal (z-score),[1],-0.655
same,glycan array binding signal (z-score),[2],-0.838
same,glycan array binding signal (z-score),[3],-0.686
same,glycan array binding signal (z-score),[4],-0.029
same,glycan array binding signal (z-score),[5],-0.197
same,glycan array binding signal (z-score),[6],-0.835
same,glycan array binding signal (z-score),[7],-0.838
same,glycan array binding signal (z-score),[8],1.74
same,glycan array binding signal (z-score),[9],-0.75
same,glycan array binding signal (z-score),[10],-0.754
same,glycan array binding signal (z-score),[11],-0.356
same,glycan array binding signal (z-score),[12],-0.749
same,glycan array binding signal (z-score),[13],-0.854
same,glycan array binding signal (z-score),[14],4.79
same,glycan array binding signal (z-score),[15],1.9
same,glycan array binding signal (z-score),[16],-0.821
same,glycan array binding signal (z-score),[17],-0.707
same,glycan array binding signal (z-score),[18],3.54
same,glycan array binding signal (z-score),[19],-0.84
same,glycan array binding signal (z-score),[20],-0.852
same,glycan array binding signal (z-score),[21],-0.871
same,glycan array binding signal (z-score),[22],-0.842
same,glycan array binding signal (z-score),[23],-0.821
same,glycan array binding signal (z-score),[24],-0.868
same,glycan array binding signal (z-score),[25],-0.432
same,glycan array binding signal (z-score),[26],-0.853
same,glycan array binding signal (z-score),[27],-0.855
same,glycan array binding signal (z-score),[28],-0.838
same,glycan array binding signal (z-score),[29],-0.851
same,glycan array binding signal (z-score),[30],-0.702
same,glycan array binding signal (z-score),[31],-0.676
same,glycan array binding signal (z-score),[32],-0.811
same,glycan array binding signal (z-score),[33],1.53
same,glycan array binding signal (z-score),[34],0.797
same,glycan array binding signal (z-score),[35],2.73
same,glycan array binding signal (z-score),[36],-0.861
same,glycan array binding signal (z-score),[37],-0.385
